Our source for the binding values is paper PMC7076256.

No constants are given. Whether binding was seen depends on the method and setting. In cells and extracts the contact can be indirect. Binding can be weak; no strength is given. Where a sequence is shown, tags or fusion partners need not be part of it.

The target in one assay is T1, Flag-SIRT2 (UniProt Q8IXJ6).
T1 sequence: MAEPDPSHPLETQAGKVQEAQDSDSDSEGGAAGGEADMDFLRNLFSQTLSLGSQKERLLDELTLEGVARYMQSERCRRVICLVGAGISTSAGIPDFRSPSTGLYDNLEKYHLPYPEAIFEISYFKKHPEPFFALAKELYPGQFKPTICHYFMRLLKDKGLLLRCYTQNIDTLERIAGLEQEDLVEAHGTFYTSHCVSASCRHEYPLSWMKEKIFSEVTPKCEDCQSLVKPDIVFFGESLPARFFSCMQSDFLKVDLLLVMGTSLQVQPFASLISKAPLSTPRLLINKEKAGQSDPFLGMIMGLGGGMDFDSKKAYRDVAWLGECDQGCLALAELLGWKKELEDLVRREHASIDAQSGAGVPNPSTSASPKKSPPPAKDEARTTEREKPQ
Kind of assay: co-IP; HEK293T cells cotransfected with a Flag-tagged and a Myc-tagged construct; immunoprecipitation with anti-Flag antibody, immunoblotting with antibodies against Myc and Flag. Background: Immunoblotting shows a protein as a band on a membrane.

The target of the next assay is HRD1-Flag. The assay is described as above.

Turning to HRD1-Myc, in the assay with Flag-SIRT2, the binding result is given as “binds”.

As for “N terminus of HRD1 containing the RING-finger domain (residues 1 to 337) (domain or fragment)”, the binding entry with Flag-SIRT2 is on record as “binds”.

B1: SIRT2 truncated mutant (residues 90 to 240) (domain or fragment, UniProt Q8IXJ6 90-240)
chain: SAGIPDFRSPSTGLYDNLEKYHLPYPEAIFEISYFKKHPEPFFALAKELYPGQFKPTICHYFMRLLKDKGLLLRCYTQNIDTLERIAGLEQEDLVEAHGTFYTSHCVSASCRHEYPLSWMKEKIFSEVTPKCEDCQSLVKPDIVFFGESLP
Take B1: the binding result with HRD1-Flag is reported as “binds”.

B2: Myc-SIRT2 (protein, UniProt Q8IXJ6 1-389)
chain: T1 sequence
B2: in the assay with HRD1-Flag, the binding entry is listed as “binds”.
